Reference: paper PMC12850156

Chains of the proteins cited; added tags and fusions are not shown.
UniProt Q12905: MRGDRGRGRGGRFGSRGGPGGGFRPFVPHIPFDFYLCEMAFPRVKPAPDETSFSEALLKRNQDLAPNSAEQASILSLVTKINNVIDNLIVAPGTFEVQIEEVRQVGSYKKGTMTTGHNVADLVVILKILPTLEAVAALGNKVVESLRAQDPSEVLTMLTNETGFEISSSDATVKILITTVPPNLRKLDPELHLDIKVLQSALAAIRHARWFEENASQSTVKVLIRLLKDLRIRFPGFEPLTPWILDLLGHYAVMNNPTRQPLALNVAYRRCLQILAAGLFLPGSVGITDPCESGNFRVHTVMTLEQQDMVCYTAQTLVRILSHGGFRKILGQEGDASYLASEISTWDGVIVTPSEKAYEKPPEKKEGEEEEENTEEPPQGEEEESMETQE
UniProt P49792: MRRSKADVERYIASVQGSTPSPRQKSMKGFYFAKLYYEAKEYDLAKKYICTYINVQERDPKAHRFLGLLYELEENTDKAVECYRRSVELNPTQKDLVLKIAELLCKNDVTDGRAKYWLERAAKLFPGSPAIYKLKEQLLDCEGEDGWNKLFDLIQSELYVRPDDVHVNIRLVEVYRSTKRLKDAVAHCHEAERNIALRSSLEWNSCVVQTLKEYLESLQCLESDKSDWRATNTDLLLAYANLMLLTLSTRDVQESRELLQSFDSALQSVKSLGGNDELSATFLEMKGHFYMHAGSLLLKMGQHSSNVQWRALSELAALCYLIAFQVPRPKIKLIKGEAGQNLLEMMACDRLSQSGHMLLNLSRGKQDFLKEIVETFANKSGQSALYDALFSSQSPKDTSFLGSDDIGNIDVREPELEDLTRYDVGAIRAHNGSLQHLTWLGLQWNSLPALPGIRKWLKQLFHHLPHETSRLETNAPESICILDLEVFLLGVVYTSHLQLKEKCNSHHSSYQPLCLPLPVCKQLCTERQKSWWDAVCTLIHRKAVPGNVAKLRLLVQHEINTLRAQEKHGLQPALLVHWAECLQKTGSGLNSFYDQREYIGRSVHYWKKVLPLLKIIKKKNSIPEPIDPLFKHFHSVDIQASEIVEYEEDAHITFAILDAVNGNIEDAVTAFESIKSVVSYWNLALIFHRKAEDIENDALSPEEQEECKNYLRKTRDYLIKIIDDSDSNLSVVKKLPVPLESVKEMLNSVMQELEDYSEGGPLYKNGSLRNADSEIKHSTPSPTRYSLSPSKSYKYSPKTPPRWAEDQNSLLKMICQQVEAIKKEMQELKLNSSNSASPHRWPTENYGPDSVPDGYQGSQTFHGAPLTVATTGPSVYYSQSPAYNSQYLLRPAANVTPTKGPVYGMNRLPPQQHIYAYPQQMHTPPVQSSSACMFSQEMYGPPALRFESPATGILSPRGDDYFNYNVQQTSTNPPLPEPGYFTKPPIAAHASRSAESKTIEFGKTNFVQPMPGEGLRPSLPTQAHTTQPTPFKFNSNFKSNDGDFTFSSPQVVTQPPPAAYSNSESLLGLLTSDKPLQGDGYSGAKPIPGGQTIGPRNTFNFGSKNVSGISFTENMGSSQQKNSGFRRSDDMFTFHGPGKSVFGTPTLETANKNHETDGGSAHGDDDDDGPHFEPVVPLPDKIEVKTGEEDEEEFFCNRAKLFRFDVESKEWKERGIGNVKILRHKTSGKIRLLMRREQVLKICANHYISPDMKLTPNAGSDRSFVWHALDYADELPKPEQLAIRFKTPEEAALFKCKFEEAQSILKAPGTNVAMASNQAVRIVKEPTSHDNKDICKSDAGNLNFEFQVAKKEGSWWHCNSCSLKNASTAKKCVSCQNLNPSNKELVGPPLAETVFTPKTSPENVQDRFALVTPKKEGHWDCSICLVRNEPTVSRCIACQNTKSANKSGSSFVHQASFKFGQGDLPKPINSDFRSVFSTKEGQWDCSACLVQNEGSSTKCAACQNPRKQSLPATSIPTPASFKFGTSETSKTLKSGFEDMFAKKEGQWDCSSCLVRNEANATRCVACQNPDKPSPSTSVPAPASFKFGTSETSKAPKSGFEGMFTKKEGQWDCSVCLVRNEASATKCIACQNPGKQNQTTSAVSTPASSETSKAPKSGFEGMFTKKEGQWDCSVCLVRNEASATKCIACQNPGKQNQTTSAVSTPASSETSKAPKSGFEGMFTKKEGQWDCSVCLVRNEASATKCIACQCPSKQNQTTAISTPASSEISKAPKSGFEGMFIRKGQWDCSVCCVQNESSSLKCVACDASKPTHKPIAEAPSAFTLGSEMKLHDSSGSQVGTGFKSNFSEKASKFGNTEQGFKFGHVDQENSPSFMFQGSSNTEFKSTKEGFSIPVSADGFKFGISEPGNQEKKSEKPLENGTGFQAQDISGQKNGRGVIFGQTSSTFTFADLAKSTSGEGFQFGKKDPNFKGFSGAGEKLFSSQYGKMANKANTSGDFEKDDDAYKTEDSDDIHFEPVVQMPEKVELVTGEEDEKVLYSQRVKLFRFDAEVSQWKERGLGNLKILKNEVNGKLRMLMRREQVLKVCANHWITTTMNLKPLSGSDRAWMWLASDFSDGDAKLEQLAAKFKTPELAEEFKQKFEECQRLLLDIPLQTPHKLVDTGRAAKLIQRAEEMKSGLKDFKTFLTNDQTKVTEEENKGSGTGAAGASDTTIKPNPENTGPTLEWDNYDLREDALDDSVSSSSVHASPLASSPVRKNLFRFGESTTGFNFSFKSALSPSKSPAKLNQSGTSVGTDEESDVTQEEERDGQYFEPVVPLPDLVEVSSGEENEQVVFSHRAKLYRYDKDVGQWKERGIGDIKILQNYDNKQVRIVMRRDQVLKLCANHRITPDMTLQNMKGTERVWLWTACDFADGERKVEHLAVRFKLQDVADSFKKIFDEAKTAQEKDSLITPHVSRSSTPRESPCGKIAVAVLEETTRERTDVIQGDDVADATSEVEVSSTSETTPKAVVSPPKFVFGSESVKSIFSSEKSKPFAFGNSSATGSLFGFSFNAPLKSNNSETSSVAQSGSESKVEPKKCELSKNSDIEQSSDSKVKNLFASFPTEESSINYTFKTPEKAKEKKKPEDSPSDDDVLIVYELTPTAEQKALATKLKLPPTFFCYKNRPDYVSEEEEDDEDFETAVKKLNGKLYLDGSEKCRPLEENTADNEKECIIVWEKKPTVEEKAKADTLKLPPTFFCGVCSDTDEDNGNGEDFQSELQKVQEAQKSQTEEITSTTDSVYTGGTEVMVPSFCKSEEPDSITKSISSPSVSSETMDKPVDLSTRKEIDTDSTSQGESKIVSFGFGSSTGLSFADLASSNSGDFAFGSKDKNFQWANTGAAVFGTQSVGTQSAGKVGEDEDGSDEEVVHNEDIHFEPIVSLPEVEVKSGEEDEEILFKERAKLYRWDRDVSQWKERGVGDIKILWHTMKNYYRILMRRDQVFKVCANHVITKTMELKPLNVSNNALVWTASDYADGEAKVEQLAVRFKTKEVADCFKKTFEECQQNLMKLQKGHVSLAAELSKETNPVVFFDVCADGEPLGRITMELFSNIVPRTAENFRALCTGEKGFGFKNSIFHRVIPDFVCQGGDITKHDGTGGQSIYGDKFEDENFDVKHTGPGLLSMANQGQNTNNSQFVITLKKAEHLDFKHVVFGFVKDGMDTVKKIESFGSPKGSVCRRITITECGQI
UniProt Q9UER7: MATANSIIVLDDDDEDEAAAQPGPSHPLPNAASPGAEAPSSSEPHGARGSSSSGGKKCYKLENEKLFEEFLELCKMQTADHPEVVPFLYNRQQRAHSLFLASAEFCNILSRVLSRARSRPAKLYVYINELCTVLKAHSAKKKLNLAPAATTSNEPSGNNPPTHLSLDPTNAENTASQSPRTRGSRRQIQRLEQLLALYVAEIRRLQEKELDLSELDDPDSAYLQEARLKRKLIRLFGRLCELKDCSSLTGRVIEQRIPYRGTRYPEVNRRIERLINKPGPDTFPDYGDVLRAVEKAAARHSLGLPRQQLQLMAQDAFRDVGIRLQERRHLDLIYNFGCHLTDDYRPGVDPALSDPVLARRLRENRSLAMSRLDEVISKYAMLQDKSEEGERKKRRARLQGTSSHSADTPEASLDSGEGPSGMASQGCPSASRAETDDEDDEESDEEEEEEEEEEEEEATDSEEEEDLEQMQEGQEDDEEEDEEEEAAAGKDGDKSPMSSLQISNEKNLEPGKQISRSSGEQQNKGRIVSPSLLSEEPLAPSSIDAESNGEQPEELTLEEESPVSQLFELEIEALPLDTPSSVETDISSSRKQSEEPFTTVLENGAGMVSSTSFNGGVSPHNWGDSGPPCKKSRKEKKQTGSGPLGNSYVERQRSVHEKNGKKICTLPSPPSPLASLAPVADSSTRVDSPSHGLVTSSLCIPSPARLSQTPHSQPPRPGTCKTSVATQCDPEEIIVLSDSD

Molecular target: T1, Flag-NUSAP1 (human) (UniProt Q9BXS6)
T1 sequence: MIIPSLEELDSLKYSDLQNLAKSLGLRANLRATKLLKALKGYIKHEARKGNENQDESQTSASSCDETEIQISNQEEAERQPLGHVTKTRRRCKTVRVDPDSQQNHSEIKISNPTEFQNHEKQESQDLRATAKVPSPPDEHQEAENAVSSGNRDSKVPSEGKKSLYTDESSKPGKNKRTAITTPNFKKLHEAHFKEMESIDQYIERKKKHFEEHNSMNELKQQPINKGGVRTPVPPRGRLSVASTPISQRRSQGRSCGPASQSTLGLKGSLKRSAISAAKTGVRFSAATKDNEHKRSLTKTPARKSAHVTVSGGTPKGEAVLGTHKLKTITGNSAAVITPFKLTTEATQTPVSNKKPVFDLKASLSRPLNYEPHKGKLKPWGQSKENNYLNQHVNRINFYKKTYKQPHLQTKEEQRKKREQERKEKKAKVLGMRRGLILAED
Assay: affinity purification with mass spectrometry; MDA-MB-231 cells stably expressing Flag-NUSAP1, 10 µM MG132 for 6 h, NETN lysis buffer; anti-Flag magnetic beads, 4 °C, 2 h; SDS-PAGE and LC-MS/MS

binding	Substance
binds	ILF2 (from UniProt Q12905 1-390)
binds	RanBP2 (from UniProt P49792 1-3224)
binds	DAXX (in TNBC cells) (from UniProt Q9UER7 1-740)

No constants are given. Whether binding was seen depends on the method and setting. In cells and extracts the contact can be indirect. These calls come from enrichment with a bait or labelling near it, and not all partners need be listed. Sequences can lack the tags named with a protein.
